From article PMC10969049
Results are given in words; binding and its absence hold for the method and conditions named. Binding seen in cells or lysates may run through a third protein. Some entries that bind do so weakly or less than the wild type.

By UniProt entry, the sequences of proteins in these tests, tags left out.
UniProt Q9UBN7: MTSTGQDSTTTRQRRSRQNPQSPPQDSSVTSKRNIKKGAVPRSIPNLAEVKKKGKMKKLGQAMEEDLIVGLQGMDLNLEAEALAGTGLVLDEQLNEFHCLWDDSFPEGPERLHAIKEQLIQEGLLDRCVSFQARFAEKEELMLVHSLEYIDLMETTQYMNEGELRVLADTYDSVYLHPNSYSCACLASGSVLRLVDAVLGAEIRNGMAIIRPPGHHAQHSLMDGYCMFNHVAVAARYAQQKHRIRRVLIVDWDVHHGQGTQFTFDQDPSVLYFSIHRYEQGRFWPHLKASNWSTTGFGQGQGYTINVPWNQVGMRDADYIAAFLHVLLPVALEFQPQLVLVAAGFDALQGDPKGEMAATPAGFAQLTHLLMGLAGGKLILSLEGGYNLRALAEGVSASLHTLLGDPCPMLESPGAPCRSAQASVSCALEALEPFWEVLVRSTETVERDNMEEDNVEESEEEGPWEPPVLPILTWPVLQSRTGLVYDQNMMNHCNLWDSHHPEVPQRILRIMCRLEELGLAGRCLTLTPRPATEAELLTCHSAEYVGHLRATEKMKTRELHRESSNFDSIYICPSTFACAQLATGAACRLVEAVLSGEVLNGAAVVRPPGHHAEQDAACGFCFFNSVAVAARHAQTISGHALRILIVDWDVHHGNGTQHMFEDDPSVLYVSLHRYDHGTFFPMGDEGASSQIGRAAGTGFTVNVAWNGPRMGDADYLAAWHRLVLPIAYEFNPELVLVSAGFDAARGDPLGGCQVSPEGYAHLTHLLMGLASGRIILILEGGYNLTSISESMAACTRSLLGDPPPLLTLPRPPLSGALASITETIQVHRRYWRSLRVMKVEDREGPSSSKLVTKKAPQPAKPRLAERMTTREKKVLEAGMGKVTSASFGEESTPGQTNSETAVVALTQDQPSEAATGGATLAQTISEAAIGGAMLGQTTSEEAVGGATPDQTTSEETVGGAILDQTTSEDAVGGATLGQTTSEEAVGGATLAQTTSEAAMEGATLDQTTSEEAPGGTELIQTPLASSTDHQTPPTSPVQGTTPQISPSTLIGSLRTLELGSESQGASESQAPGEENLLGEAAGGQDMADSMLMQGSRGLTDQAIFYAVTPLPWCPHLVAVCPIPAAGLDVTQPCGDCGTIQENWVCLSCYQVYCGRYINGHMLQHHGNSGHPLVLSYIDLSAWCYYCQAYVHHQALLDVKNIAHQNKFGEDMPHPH
UniProt P08047: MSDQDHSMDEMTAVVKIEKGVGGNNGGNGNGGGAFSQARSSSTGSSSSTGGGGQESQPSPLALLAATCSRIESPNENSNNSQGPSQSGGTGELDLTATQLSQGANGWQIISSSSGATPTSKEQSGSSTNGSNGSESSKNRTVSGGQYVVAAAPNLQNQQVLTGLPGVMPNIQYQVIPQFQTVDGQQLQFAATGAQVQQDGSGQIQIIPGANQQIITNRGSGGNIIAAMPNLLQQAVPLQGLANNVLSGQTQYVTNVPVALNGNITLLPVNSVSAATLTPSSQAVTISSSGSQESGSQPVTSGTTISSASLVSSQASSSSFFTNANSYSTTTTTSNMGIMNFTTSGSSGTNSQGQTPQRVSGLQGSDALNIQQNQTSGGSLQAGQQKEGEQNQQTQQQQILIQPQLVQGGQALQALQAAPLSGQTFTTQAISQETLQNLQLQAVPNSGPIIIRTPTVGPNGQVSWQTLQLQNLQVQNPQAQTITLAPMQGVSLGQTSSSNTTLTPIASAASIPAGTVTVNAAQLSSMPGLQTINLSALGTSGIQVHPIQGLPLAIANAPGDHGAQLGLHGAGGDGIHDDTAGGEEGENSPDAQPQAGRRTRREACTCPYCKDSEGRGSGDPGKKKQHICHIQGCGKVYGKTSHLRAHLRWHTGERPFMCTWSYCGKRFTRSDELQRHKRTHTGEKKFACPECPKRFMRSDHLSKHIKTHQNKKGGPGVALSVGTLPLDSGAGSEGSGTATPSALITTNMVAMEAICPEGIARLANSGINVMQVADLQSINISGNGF

Molecular target: HA-tagged HDAC6 (histone deacetylase 6) (human) (UniProt Q9UBN7)
Test: co-IP; HA-tagged HDAC6 precipitated with anti-HA affinity agarose beads from 293T cell lysate; binding buffer 50 mM HEPES, 150 mM NaCl, 1% Triton X-100, pH 7.5, protease inhibitors; SP1 detected by blot; n = 3

**Q.** With “transcription factor SP1 (from UniProt P08047 1-785)” as the substance, how does the binding read?
**A.** The binding was “binds”.
